Results are given in words; binding and its absence hold for the method and conditions named.
What was measured:
CCL15_HUMAN (human) [1] = target: CCL15_HUMAN (human) (UniProt Q16663); assay: BLI, empty cell the 12th table, row 25, column 7
CCL20_HUMAN (human) [2] = target: CCL20_HUMAN (human) (UniProt P78556); assay: BLI, empty cell the 12th table, row 30, column 7
CCL21_HUMAN (human) [3] = target: CCL21_HUMAN (human) (UniProt O00585); assay: BLI, empty cell the 12th table, row 32, column 7
CCL23_HUMAN (human) [4] = target: CCL23_HUMAN (human) (UniProt P55773); assay: BLI, empty cell the 12th table, row 34, column 7
CCL24_HUMAN (human) [5] = target: CCL24_HUMAN (human) (UniProt O00175); assay: BLI, empty cell the 12th table, row 35, column 7
CCL27_HUMAN (human) [6] = target: CCL27_HUMAN (human) (UniProt Q9Y4X3); assay: BLI, empty cell the 12th table, row 38, column 7
CCL28_HUMAN (human) [7] = target: CCL28_HUMAN (human) (UniProt Q9NRJ3); assay: BLI, empty cell the 12th table, row 40, column 7
CX3CL1_HUMAN (human) [8] = target: CX3CL1_HUMAN (human) (UniProt P78423); assay: BLI, empty cell the 12th table, row 41, column 7
CXCL1_HUMAN (human) [9] = target: CXCL1_HUMAN (human) (UniProt P09341); assay: BLI, empty cell the 12th table, row 42, column 7
CXCL2_HUMAN (human) [10] = target: CXCL2_HUMAN (human) (UniProt P19875); assay: BLI, empty cell the 12th table, row 43, column 7
CXCL3_HUMAN (human) [11] = target: CXCL3_HUMAN (human) (UniProt P19876); assay: BLI, empty cell the 12th table, row 44, column 7
CXCL4_HUMAN (human) [12] = target: CXCL4_HUMAN (human) (UniProt P02776); assay: BLI, empty cell the 12th table, row 45, column 7
CXCL5_HUMAN (human) [13] = target: CXCL5_HUMAN (human) (UniProt P42830); assay: BLI, empty cell the 12th table, row 46, column 7
CXCL6_HUMAN (human) [14] = target: CXCL6_HUMAN (human) (UniProt P80162); assay: BLI, empty cell the 12th table, row 47, column 7
CXCL7_HUMAN (human) [15] = target: CXCL7_HUMAN (human) (UniProt P02775); assay: BLI, empty cell the 12th table, row 48, column 7
CXCL8_HUMAN (human) [16] = target: CXCL8_HUMAN (human) (UniProt P10145); assay: BLI, empty cell the 12th table, row 49, column 7
CXCL9_HUMAN (human) [17] = target: CXCL9_HUMAN (human) (UniProt Q07325); assay: BLI, empty cell the 12th table, row 50, column 7
CXCL10_HUMAN (human) [18] = target: CXCL10_HUMAN (human) (UniProt P02778); assay: BLI, empty cell the 12th table, row 51, column 7
CXCL11_HUMAN (human) [19] = target: CXCL11_HUMAN (human) (UniProt O14625); assay: BLI, empty cell the 12th table, row 52, column 7
CXCL12_HUMAN (human) [20] = target: CXCL12_HUMAN (human) (UniProt P48061); assay: BLI, empty cell the 12th table, row 53, column 7
CXCL13_HUMAN (human) [21] = target: CXCL13_HUMAN (human) (UniProt O43927); assay: BLI, empty cell the 12th table, row 54, column 7
CXCL14_HUMAN (human) [22] = target: CXCL14_HUMAN (human) (UniProt O95715); assay: BLI, empty cell the 12th table, row 55, column 7
XCL1_HUMAN (human) [23] = target: T1, XCL1_HUMAN (human) (UniProt P47992); assay: BLI, empty cell the 12th table, row 59, column 7
T1 sequence: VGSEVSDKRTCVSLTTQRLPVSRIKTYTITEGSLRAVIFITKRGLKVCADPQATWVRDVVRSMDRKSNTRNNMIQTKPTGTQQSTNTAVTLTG

Protein sequences, listed by entry. Tags and fused reporters are not part of them. Residues count along the entry.
UniProt Q16663, residues 22-113: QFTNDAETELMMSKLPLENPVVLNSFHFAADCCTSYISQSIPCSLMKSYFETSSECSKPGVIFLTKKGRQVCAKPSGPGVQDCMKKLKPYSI
UniProt P78556, residues 27-96: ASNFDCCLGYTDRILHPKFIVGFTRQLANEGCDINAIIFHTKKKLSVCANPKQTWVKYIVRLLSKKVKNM
UniProt O00585, residues 24-134: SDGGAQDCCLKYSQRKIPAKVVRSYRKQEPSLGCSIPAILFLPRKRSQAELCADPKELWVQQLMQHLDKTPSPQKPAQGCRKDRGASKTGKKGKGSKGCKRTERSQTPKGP
UniProt P55773, residues 22-120: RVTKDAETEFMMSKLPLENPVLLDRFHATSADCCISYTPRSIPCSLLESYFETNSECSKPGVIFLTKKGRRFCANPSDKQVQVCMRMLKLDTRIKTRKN
UniProt O00175, residues 27-104: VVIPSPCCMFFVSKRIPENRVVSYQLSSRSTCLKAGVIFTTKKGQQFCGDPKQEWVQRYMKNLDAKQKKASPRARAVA
UniProt Q9Y4X3, residues 25-112: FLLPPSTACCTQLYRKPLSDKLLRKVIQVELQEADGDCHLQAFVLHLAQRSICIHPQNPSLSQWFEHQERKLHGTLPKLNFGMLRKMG
UniProt Q9NRJ3, residues 23-127: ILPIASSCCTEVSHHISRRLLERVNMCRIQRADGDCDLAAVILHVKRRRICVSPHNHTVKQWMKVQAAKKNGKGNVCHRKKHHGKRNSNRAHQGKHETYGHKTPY
UniProt P78423, residues 25-100: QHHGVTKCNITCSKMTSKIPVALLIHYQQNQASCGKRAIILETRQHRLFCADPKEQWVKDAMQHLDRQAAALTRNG
UniProt P09341, residues 35-107: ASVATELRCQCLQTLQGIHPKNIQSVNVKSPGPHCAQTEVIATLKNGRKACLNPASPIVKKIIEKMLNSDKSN
UniProt P19875, residues 35-107: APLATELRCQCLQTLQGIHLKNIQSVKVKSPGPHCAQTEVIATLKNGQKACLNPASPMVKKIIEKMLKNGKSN
UniProt P19876, residues 35-107: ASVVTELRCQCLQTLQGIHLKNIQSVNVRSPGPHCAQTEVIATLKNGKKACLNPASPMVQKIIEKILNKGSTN
UniProt P02776, residues 32-101: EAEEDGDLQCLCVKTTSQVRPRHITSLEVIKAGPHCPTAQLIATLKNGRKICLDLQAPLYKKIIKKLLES
UniProt P42830, residues 41-114: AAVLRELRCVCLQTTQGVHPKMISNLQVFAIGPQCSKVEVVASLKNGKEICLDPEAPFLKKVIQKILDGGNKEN
UniProt P80162, residues 38-114: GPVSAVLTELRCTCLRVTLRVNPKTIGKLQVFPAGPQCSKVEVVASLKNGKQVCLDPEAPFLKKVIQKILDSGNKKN
UniProt P02775, residues 59-128: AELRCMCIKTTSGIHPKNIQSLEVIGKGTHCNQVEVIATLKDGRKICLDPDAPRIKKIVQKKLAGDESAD
UniProt P10145, residues 28-99: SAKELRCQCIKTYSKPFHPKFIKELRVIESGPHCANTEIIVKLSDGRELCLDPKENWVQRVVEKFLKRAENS
UniProt Q07325, residues 23-125: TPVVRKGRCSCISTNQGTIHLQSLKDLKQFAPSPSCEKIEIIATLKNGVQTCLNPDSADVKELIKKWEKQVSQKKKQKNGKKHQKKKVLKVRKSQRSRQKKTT
UniProt P02778, residues 22-98: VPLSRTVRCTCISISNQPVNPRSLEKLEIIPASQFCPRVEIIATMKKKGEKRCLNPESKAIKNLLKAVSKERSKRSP
UniProt O14625, residues 22-94: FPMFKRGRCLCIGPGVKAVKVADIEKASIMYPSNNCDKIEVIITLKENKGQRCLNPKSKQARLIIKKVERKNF
UniProt P48061, residues 22-89: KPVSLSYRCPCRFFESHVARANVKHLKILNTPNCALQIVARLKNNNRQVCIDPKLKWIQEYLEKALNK
UniProt O43927, residues 23-109: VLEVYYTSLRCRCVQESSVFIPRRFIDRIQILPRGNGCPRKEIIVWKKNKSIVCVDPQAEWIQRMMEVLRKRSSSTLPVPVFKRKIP
UniProt O95715, residues 35-111: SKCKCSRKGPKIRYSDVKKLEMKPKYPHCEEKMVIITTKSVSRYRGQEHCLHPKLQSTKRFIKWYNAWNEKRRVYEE
UniProt P22362, residues 24-96: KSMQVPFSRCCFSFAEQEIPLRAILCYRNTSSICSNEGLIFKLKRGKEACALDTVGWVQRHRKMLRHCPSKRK
UniProt P13501, residues 24-91: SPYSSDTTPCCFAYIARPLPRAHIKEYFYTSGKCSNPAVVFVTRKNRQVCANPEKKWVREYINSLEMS
UniProt O15467, residues 24-120: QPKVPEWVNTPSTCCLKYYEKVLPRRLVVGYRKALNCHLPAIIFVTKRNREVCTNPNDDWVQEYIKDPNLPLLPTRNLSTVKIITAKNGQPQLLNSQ

[24] = target: T2, CCL17_HUMAN (human), Q92583; assay: BLI, empty cell the 12th table, row 27, column 7; settings: remark: other sources report otherwise
T2 chain: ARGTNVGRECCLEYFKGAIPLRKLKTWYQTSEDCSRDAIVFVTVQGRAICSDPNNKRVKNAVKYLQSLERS

[25] = target: T3, CCL19_HUMAN (human), Q99731; assay: BLI, empty cell the 12th table, row 29, column 7; settings: remark: other sources report otherwise
T3 chain: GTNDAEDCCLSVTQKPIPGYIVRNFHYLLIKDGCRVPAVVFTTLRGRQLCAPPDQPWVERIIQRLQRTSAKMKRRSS

[26] = target: T4, CCL22_HUMAN (human), O00626; assay: BLI, empty cell the 12th table, row 33, column 7; settings: remark: other sources report otherwise
T4 chain: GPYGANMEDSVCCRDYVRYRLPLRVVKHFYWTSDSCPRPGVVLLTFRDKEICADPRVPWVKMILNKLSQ

CCL1_HUMAN (human) = CCL1_HUMAN (human) (UniProt P22362); assay: BLI, empty cell the 12th table, row 10, column 9
CCL5_HUMAN (human) = CCL5_HUMAN (human) (UniProt P13501); assay: BLI, empty cell the 12th table, row 18, column 9
CCL15_HUMAN (human) [27] = target: CCL15_HUMAN (human) (UniProt Q16663); assay: BLI, empty cell the 12th table, row 25, column 9
CCL16_HUMAN (human) = CCL16_HUMAN (human) (UniProt O15467); assay: BLI, empty cell the 12th table, row 26, column 9
CCL17_HUMAN (human) = CCL17_HUMAN (human) (UniProt Q92583); assay: BLI, empty cell the 12th table, row 27, column 9
CCL19_HUMAN (human) = CCL19_HUMAN (human) (UniProt Q99731); assay: BLI, empty cell the 12th table, row 29, column 9
CCL20_HUMAN (human) [28] = target: CCL20_HUMAN (human) (UniProt P78556); assay: BLI, empty cell the 12th table, row 30, column 9
CCL21_HUMAN (human) [29] = target: CCL21_HUMAN (human) (UniProt O00585); assay: BLI, empty cell the 12th table, row 32, column 9
CCL22_HUMAN (human) = CCL22_HUMAN (human) (UniProt O00626); assay: BLI, empty cell the 12th table, row 33, column 9
CCL23_HUMAN (human) [30] = target: CCL23_HUMAN (human) (UniProt P55773); assay: BLI, empty cell the 12th table, row 34, column 9
CCL24_HUMAN (human) [31] = target: CCL24_HUMAN (human) (UniProt O00175); assay: BLI, empty cell the 12th table, row 35, column 9
CCL27_HUMAN (human) [32] = target: CCL27_HUMAN (human) (UniProt Q9Y4X3); assay: BLI, empty cell the 12th table, row 38, column 9
CCL28_HUMAN (human) [33] = target: CCL28_HUMAN (human) (UniProt Q9NRJ3); assay: BLI, empty cell the 12th table, row 40, column 9
CX3CL1_HUMAN (human) [34] = target: CX3CL1_HUMAN (human) (UniProt P78423); assay: BLI, empty cell the 12th table, row 41, column 9
CXCL1_HUMAN (human) [35] = target: CXCL1_HUMAN (human) (UniProt P09341); assay: BLI, empty cell the 12th table, row 42, column 9
CXCL2_HUMAN (human) [36] = target: CXCL2_HUMAN (human) (UniProt P19875); assay: BLI, empty cell the 12th table, row 43, column 9
CXCL3_HUMAN (human) [37] = target: CXCL3_HUMAN (human) (UniProt P19876); assay: BLI, empty cell the 12th table, row 44, column 9
CXCL4_HUMAN (human) [38] = target: CXCL4_HUMAN (human) (UniProt P02776); assay: BLI, empty cell the 12th table, row 45, column 9
CXCL5_HUMAN (human) [39] = target: CXCL5_HUMAN (human) (UniProt P42830); assay: BLI, empty cell the 12th table, row 46, column 9
CXCL6_HUMAN (human) [40] = target: CXCL6_HUMAN (human) (UniProt P80162); assay: BLI, empty cell the 12th table, row 47, column 9
CXCL7_HUMAN (human) [41] = target: CXCL7_HUMAN (human) (UniProt P02775); assay: BLI, empty cell the 12th table, row 48, column 9
CXCL8_HUMAN (human) [42] = target: CXCL8_HUMAN (human) (UniProt P10145); assay: BLI, empty cell the 12th table, row 49, column 9
CXCL9_HUMAN (human) [43] = target: CXCL9_HUMAN (human) (UniProt Q07325); assay: BLI, empty cell the 12th table, row 50, column 9
CXCL10_HUMAN (human) [44] = target: CXCL10_HUMAN (human) (UniProt P02778); assay: BLI, empty cell the 12th table, row 51, column 9
CXCL11_HUMAN (human) [45] = target: CXCL11_HUMAN (human) (UniProt O14625); assay: BLI, empty cell the 12th table, row 52, column 9
CXCL12_HUMAN (human) [46] = target: CXCL12_HUMAN (human) (UniProt P48061); assay: BLI, empty cell the 12th table, row 53, column 9
CXCL13_HUMAN (human) [47] = target: CXCL13_HUMAN (human) (UniProt O43927); assay: BLI, empty cell the 12th table, row 54, column 9
CXCL14_HUMAN (human) [48] = target: CXCL14_HUMAN (human) (UniProt O95715); assay: BLI, empty cell the 12th table, row 55, column 9
XCL1_HUMAN (human) [49] = target: T1, XCL1_HUMAN (human); assay: BLI, empty cell the 12th table, row 59, column 9

Measured: binding

B1: P467_RHIPU (protein)
chain: AEKSLDSDSSGEDYELWTQGCPFLVAENRTGFGTTVSCQHNCNGAIEKVPEGEPCYTIGEDGLGRMKLNLPYNCSLGECSGGVCVPNGRSDVCFKRTWEENNKAMA
no binding (tested: 300 nM): CCL15_HUMAN (human) [1] | CCL20_HUMAN (human) [2] | CCL21_HUMAN (human) [3] | CCL23_HUMAN (human) [4] | CCL24_HUMAN (human) [5] | CCL27_HUMAN (human) [6] | CCL28_HUMAN (human) [7] | CX3CL1_HUMAN (human) [8] | CXCL1_HUMAN (human) [9] | CXCL2_HUMAN (human) [10] | CXCL3_HUMAN (human) [11] | CXCL4_HUMAN (human) [12] | CXCL5_HUMAN (human) [13] | CXCL6_HUMAN (human) [14] | CXCL7_HUMAN (human) [15] | CXCL8_HUMAN (human) [16] | CXCL9_HUMAN (human) [17] | CXCL10_HUMAN (human) [18] | CXCL11_HUMAN (human) [19] | CXCL12_HUMAN (human) [20] | CXCL13_HUMAN (human) [21] | CXCL14_HUMAN (human) [22] | XCL1_HUMAN (human) [23]

B2: P467_RHIPU, L7M8Z8 22-127 (protein)
chain: B1 chain
no binding (tested: 300 nM): [24] | [25] | [26]

B3: P1180_AMBTR (protein)
chain: EEPKDGYDYTEGCPFVVLGNGTHAKPAGCSHLCNGAPETLDDNMECYNVTEEVAKRMTPDIPYTCWLGWCSKGECKRDNRTEVCYRGSERE
no binding (tested: 300 nM): CCL1_HUMAN (human) | CCL5_HUMAN (human) | CCL15_HUMAN (human) [27] | CCL16_HUMAN (human) | CCL17_HUMAN (human) | CCL19_HUMAN (human) | CCL20_HUMAN (human) [28] | CCL21_HUMAN (human) [29] | CCL22_HUMAN (human) | CCL23_HUMAN (human) [30] | CCL24_HUMAN (human) [31] | CCL27_HUMAN (human) [32] | CCL28_HUMAN (human) [33] | CX3CL1_HUMAN (human) [34] | CXCL1_HUMAN (human) [35] | CXCL2_HUMAN (human) [36] | CXCL3_HUMAN (human) [37] | CXCL4_HUMAN (human) [38] | CXCL5_HUMAN (human) [39] | CXCL6_HUMAN (human) [40] | CXCL7_HUMAN (human) [41] | CXCL8_HUMAN (human) [42] | CXCL9_HUMAN (human) [43] | CXCL10_HUMAN (human) [44] | CXCL11_HUMAN (human) [45] | CXCL12_HUMAN (human) [46] | CXCL13_HUMAN (human) [47] | CXCL14_HUMAN (human) [48] | XCL1_HUMAN (human) [49]
